From PubChem BioAssay AID1487 (National Center for Advancing Translational Sciences (NCATS), 2009)
The list shows a part of the results. Further columns of the screen follow, without active or inactive calls. The list favours compounds with an active or inconclusive main result. Words in brackets tell the shape of the fitted curve; partial curves, single points and poor fits give uncertain potencies.

Test: qHTS Assay for Modulators of Lamin A Splicing
Conditions: HeLa LMNA splicing GFP/RFP minigene ratio, 48 h
Outline: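 S3 HeLa stable clones carrying a lamin A-EGFP splicing minigene plus DsRed2 were seeded at 600 cells/well in Opti-MEM with 2% FBS, pin-dosed and incubated 48 h at 37°C. Acumen cytometry (488 nm) gave the GFP/RFP total-intensity ratio.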

[1] = measured here: RFP viability control channel
[2] = measured here: GFP splicing reporter channel

Q: For `COC(=O)c1ccc(NC(=O)CCc2c(C)nn(-c3ccc(N4CCCCC4)nn3)c2C)cc1`, which AC50 [1] is on record?
A: Its AC50 is 35.5 µM [falling, single point].

Q: What does the source list for `Cc1ccccc1-c1nc(Nc2ccncc2)c2ccccc2n1`?
A: AC50 [2]: 1 µM [falling, partial curve]; AC50 [1]: 6.31 µM [falling, partial curve, poor fit]

Q: Which AC50 [1] does the source give for `Cc1cccc2sc(N(CCN(C)C)C(=O)/C=C/c3cccs3)nc12` here?
A: The AC50 was 31.6 µM [rising, single point].

Q: Which AC50 [2] does the source give for `O=C(N/N=C/c1ccccc1OCc1ccccc1)c1cccs1` here?
A: Its AC50 is 7.08 µM [rising, partial curve].

Q: And the AC50 [1]?
A: Its AC50 is 12.6 µM [rising, single point].

Q: For `CCC1CCCCN1Cc1nc2c(c(=O)n(C)c(=O)n2C)n1Cc1ccccc1` (stereo unspecified), which AC50 [1] is on record?
A: Its AC50 is 6.31 µM [rising, full curve, poor fit].

Q: What does the source list for `O=C(O)c1ccc(-c2ccc(O)c(F)c2)cc1`?
A: AC50 [2]: 0.00447 µM [falling, full curve, poor fit]; AC50 [1]: 0.00447 µM [falling, full curve, poor fit]

Q: For `CCCCNc1cc(C)nc(NCc2ccccc2)n1`, which AC50 [2] is on record?
A: Its AC50 is 11.2 µM [rising, partial curve, poor fit].

Q: And the AC50 [1]?
A: Its AC50 is 11.2 µM [rising, partial curve].

Q: Which AC50 [1] does the source give for `Cc1ccccc1CNC(=O)C(=O)NCC(c1cccs1)S(=O)(=O)c1cccs1` (stereo unspecified) here?
A: Its AC50 is 0.02 µM [falling, full curve].

Q: Which AC50 [1] does the source give for `CCN(Cc1ccccc1)c1ccc(/C=N/N=C(N)N)cc1` here?
A: Its AC50 is 11.2 µM [rising, partial curve].

Q: Which AC50 [1] does the source give for `Cc1cccc(NC(=S)Nc2ccc(Oc3ccccc3)cc2)n1` here?
A: The AC50 was 2.82 µM [rising, full curve].

Q: Which results are given for `O=C(COc1ccccc1)OCc1cc(=O)n2nc(-c3cccs3)sc2n1`?
A: AC50 [2]: 7.08 µM [falling, full curve, poor fit]; AC50 [1]: 0.0631 µM [falling, full curve]

Q: With `Cc1ccc(S(=O)(=O)CCc2nnc(NC(=O)CCl)s2)cc1C` as the compound, how does the AC50 [1] read?
A: Its AC50 is 1.41 µM [rising, partial curve, poor fit].

Q: For `CCc1nc(N2CCCC(C)C2)c2oc3ccccc3c2n1` (stereo unspecified), which AC50 [1] is on record?
A: The AC50 was 35.5 µM [rising, single point].

Q: For `Cc1cccc(C)c1NC(=O)CCCSc1nnc(-c2ccco2)o1`, which AC50 [2] is on record?
A: Its AC50 is 20 µM [rising, single point].

Q: Which AC50 [1] does the source give for `CCCCC(=O)NNC(=S)NC(=O)c1ccc(C)cc1` here?
A: The AC50 was 17.8 µM [rising, partial curve, poor fit].

Q: For `CCOC(=O)N1CCN(C(=O)c2ccc3c(c2)N(Cc2ccc(C)cc2)CCS3)CC1`, which AC50 [2] is on record?
A: Its AC50 is 11.2 µM [rising, single point].

Q: And the AC50 [1]?
A: Its AC50 is 11.2 µM [rising, partial curve].

Q: For `Cc1cc(C)n2nc(C(=O)N/N=C/c3c4ccccc4cc4ccccc34)nc2n1`, which AC50 [1] is on record?
A: Its AC50 is 10 µM [falling, single point].

Q: With `N#C/C(=C\c1ccc([N+](=O)[O-])o1)c1nc2ccccc2[nH]1` as the compound, how does the AC50 [2] read?
A: Its AC50 is 35.5 µM [falling, single point].

Q: What about the AC50 [1] of the same compound?
A: Its AC50 is 35.5 µM [falling, single point].

Q: For `C=CCSc1nnc(NC(=O)c2cccc(S(=O)(=O)N(C)c3ccccc3)c2)s1`, which AC50 [1] is on record?
A: Its AC50 is 17.8 µM [rising, single point].

Q: With `Cc1ccc(S(=O)(=O)N2CCSC2c2ccco2)cc1` (stereo unspecified) as the compound, how does the AC50 [1] read?
A: Its AC50 is 31.6 µM [rising, single point].

Q: For `Cc1cc(C)cc(-n2c(SCC(=O)NC3CCCCC3)nc3c([nH]c4ccccc43)c2=O)c1`, which AC50 [2] is on record?
A: The AC50 was 7.08 µM [falling, partial curve].

Q: And the AC50 [1]?
A: The AC50 was 5.01 µM [falling, full curve].

Q: What does the source list for `CC12CCC(C(=O)Nc3cccc(Cl)c3)(C(Br)C1=O)C2(C)C` (stereo unspecified)?
A: AC50 [2]: 12.6 µM [rising, single point]; AC50 [1]: 15.8 µM [rising, single point]

Q: Which AC50 [1] does the source give for `N#C/C(=C\c1cn(CC(=O)N2CCCC2)c2ccccc12)C(=O)NCc1ccc2c(c1)OCO2` here?
A: The AC50 was 12.6 µM [rising, single point].

Q: Which AC50 [2] does the source give for `COc1ccccc1OCC(=O)NC1CCCCCC1` here?
A: Its AC50 is 25.1 µM [rising, single point].

Q: With `CCNC(=O)CC1SC(=Nc2cccc3ccccc23)N(C)C1=O` (stereo unspecified) as the compound, how does the AC50 [2] read?
A: The AC50 was 12.6 µM [rising, partial curve, poor fit].

Q: And the AC50 [1]?
A: Its AC50 is 12.6 µM [rising, partial curve].

Q: Which AC50 [2] does the source give for `COC(=O)C1=C(C)NC(C)=C(C(=O)OC(C)C)[C@H]1c1cccc2nonc12` here?
A: Its AC50 is 0.00447 µM [falling, full curve, poor fit].

Q: What about the AC50 [1] of the same compound?
A: The AC50 was 0.000447 µM [falling, full curve, poor fit].

Q: Which results are given for `O=C(Nc1ccc(C(F)(F)F)cc1)c1csc(-c2ccncc2)n1`?
A: AC50 [2]: 8.91 µM [falling, partial curve]; AC50 [1]: 0.282 µM [falling, full curve, poor fit]

Q: For `CC(=O)N1CCN(c2ccc(NCc3ccc(C)cc3)cc2)CC1`, which AC50 [1] is on record?
A: The AC50 was 28.2 µM [rising, single point].

Q: With `O=C(COC(=O)c1ccc([N+](=O)[O-])s1)NC(c1ccccc1)c1ccccc1` as the compound, how does the AC50 [2] read?
A: Its AC50 is 1.12 µM [rising, full curve, poor fit].

Q: And the AC50 [1]?
A: Its AC50 is 0.794 µM [rising, single point].

Q: With `O=C(Cn1ccsc1=NC(=O)c1ccco1)c1ccccc1` as the compound, how does the AC50 [1] read?
A: Its AC50 is 12.6 µM [rising, partial curve, poor fit].

Q: Which results are given for `O=C(COC(=O)c1cccnc1Nc1cccc(C(F)(F)F)c1)NC1CCS(=O)(=O)C1` (stereo unspecified)?
A: AC50 [2]: 14.1 µM [rising, partial curve]; AC50 [1]: 12.6 µM [rising, partial curve]

Q: Which AC50 [1] does the source give for `CCN(CC)c1ncnc2c1[nH]c1ccccc12` here?
A: Its AC50 is 35.5 µM [rising, single point].

Q: For `CCCSc1cc(N2CCOCC2)nc(-c2ccccc2Cl)n1`, which AC50 [2] is on record?
A: Its AC50 is 35.5 µM [rising, single point].

Q: And the AC50 [1]?
A: The AC50 was 31.6 µM [rising, single point].

Q: With `Cc1ccc(C)c(-n2cc(CN3CCN(C(=O)c4ncn[nH]4)CC3)c(-c3ccccc3)n2)c1` as the compound, how does the AC50 [2] read?
A: Its AC50 is 35.5 µM [falling, single point].

Q: What about the AC50 [1] of the same compound?
A: Its AC50 is 35.5 µM [falling, single point].

Q: For `CCOC(=O)c1c(-c2ccccc2)nnn1-c1nc(OCC)nc(N2CCCCC2)n1`, which AC50 [1] is on record?
A: The AC50 was 11.2 µM [rising, partial curve].
